Assay results published in PubChem BioAssay AID504444 (National Center for Advancing Translational Sciences (NCATS), 2011).
The whole screen tested about 360,000 compounds, of which about 7,500 (2.1%) were called active. The shares of active, inactive and inconclusive entries below differ from those in the screen. Calls come from the whole dose curve; as a rule, active = well fitted inhibition curve with a large enough effect; inconclusive = small, poorly fitted or top-dose-only effect, or effect the other way; inactive = flat fitted curve, though single readings scatter. Potencies of inconclusive entries are doubtful fits and often do not repeat. The source holds several records for some structures; these can differ, active in one and inactive in another.

Experiment: Nrf2 qHTS screen for inhibitors; note: nearly all actives have a fitted effect of over 60% in size
Details: A549 ARE-Fluc reporter, luciferase luminescence, 18-24 h; activity change, negative = inhibition: at 46 µM (top of the series)
How it was run: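 Nrf2 function is reported as luminescence of an ARE-controlled luciferase in A549 cells. Compounds were tested at several concentrations, and a CellTiter-Fluor read on the same wells flagged cytotoxicity.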
% is set by controls: 0 for no effect and ±100 for the full control effect; potency is the fitted concentration of half-maximal effect.

Structure (SMILES) | Potency | activity change, negative = inhibition
COc1ccc(Cl)cc1C(=O)NCCCSc1ccccc1 | inconclusive: 32.6 µM [falling, partial curve, poor fit] | –
O=C(OC(c1ccccc1)c1nccc2ccccc12)c1cccc([N+](=O)[O-])c1 (configuration not stated) | inconclusive: 18.4 µM [activator, partial curve] | –
COC(=O)[C@@]1(C)[C@H]2C(=O)N(Cc3ccccc3)C(=O)[C@H]2[C@H]2CN=C(SCC(=O)c3ccccc3)N21 | inconclusive: 23.1 µM [activator, single point] | –
COc1cc(CNCCSc2nnnn2C)cc(Br)c1OCc1ccc(F)cc1 | inconclusive: 20.6 µM [falling, partial curve] | –
C=CCn1c(=O)c2ccccc2n2c(SCC(=O)NCCc3ccccc3)nnc12 | inconclusive: 25.9 µM [falling, partial curve, poor fit] | –
CCOCCn1c(CN2CCN(c3cccc(Cl)c3)CC2)nc2c1c(=O)n(C)c(=O)n2C | inconclusive: 13 µM [falling, partial curve] | –
Cc1nn(C)cc1C(C(=O)NC1CCCCC1)N(CCc1ccccc1)C(=O)c1cnccn1 (configuration not stated) | inconclusive: 0.58 µM [activator, single point] | –
O=C(Nc1ccccn1)Nc1ccccc1Cl | inconclusive: 20.6 µM [activator, partial curve, poor fit] | –
Cc1ccc(NC(=O)C2CCCN2S(=O)(=O)c2ccc3nc(-c4ccccc4)[nH]c3c2)cc1F (configuration not stated) | active: 20.6 µM | –
COc1ccc(NC(=O)c2cc(S(=O)(=O)NCC3COc4ccccc4O3)ccc2F)cc1 (configuration not stated) | inconclusive: 18.4 µM [falling, single point] | –
COc1ccccc1N1CCN(C(=O)c2ccc3c(=O)n(Cc4ccc5c(c4)OCO5)c(=O)[nH]c3c2)CC1 | active: 14.6 µM | –
Cc1ccc(S(=O)(=O)Oc2ccc(/C=N/NC(=O)c3cccnc3)cc2)cc1 | inconclusive: 5.8 µM [falling, partial curve] | –
Cc1ccc(S(=O)(=O)NCCC(=O)N2CC(C)OC(C)C2)cc1 (configuration not stated) | inconclusive: 3.26 µM [activator, partial curve, poor fit] | –
Cc1ccc(N2C(=O)NC(NS(=O)(=O)c3ccc(Cl)cc3)(C(F)(F)F)C2=O)cc1C (configuration not stated) | – | inactive: -11%
Cc1c(C(=O)N(Cc2cccs2)C2CCS(=O)(=O)C2)oc2ccccc12 (configuration not stated) | inconclusive: 18.4 µM [falling, partial curve, poor fit] | –
O=C1CC(c2ccccc2F)c2cc3c(cc2N1)CCC3 (configuration not stated) | inconclusive: 20.6 µM [falling, partial curve, poor fit] | –
COc1ccccc1N1CCN(C(=O)CCc2nnc3n(C)c(=O)c4sccc4n23)CC1 | – | inactive: -1.57%
COc1ccc(Cl)cc1S(=O)(=O)N1CCN(C(=O)c2n[nH]c(=O)c3ccccc23)CC1 | inconclusive: 29.1 µM [activator, single point] | –
O=C(Nc1ccc(Cl)cc1)c1ccc(-n2cncn2)c([N+](=O)[O-])c1 | inconclusive: 20.6 µM [falling, single point] | –
N#CCCN(C(=O)CCl)c1cccc(Cl)c1 | inconclusive: 18.4 µM [falling, single point] | –
CCOC(=O)N1CCN(c2nc3c(C)cccn3c(=O)c2C=O)CC1 | inconclusive: 4.61 µM [falling, partial curve, poor fit] | –

Structure (SMILES) | Potency | activity change, negative = inhibition
CC[C@]12c3[nH]c4ccccc4c3CCN1C(=O)C(CC(=O)NCC13CC4CC(CC(C4)C1)C3)C[C@@H]2C(=O)N1CCN(C(=O)C2CC2)CC1 (some centres not stated) | inconclusive: 29.1 µM [falling, single point] | –
O=C(N/N=C1/CC2C=CCC12)c1ccco1 (configuration not stated) | inconclusive: 10.3 µM [activator, partial curve, poor fit] | –
COc1ccc(OC)c(NC(=O)c2ccc(S(=O)(=O)N3CCOCC3)cc2)c1 | inconclusive: 23.1 µM [falling, partial curve, poor fit] | –
Cc1cc(/C=C(/C#N)c2cccc(F)c2)c(C)n1-c1cccnc1 | inconclusive: 0.092 µM [activator, full curve, poor fit] | –
C[C@@H]1C=C[C@](Cc2ccccc2)(C(=O)NCC2CC2)N1C(=O)c1ccccc1 | inconclusive: 13 µM [activator, partial curve] | –
CCOC(=O)c1sc2nc(SCC(=O)NCc3ccco3)n(Cc3ccccc3)c(=O)c2c1C | inconclusive: 32.6 µM [falling, partial curve, poor fit] | –
COc1ccc(CCN2C(=O)CC(N3CCN(C/C=C/c4ccccc4)CC3)C2=O)cc1OC (configuration not stated) | inconclusive: 16.4 µM [falling, partial curve, poor fit] | –
O=C1N/C(=N/N=C/c2ccco2)SC1Cc1ccccc1 (configuration not stated) | – | inactive: 0.117%
CCCCC(=O)Nc1ccc(C2C(=O)c3ccccc3C2=O)cc1 | – | inactive: 7.11%
O=C(COC(=O)C1CCCCC1)Nc1ccc(N2CCCCC2)cc1 | inconclusive: 10.3 µM [activator, partial curve, poor fit] | –
CCCCN(C)Cc1c(C)[nH]c2ccccc2c1=O | inconclusive: 29.1 µM [activator, single point] | –
CC(/C=N\NC(=O)c1cc(C)oc1C)=C\c1ccccc1 | inconclusive: 29.1 µM [activator, single point] | –
Cc1ccn2c(Nc3ccc(F)cc3)c(-c3ccccn3)nc2c1 | active: 16.4 µM | –
Cc1[nH]n(-c2ccccc2)c(=O)c1N=Nc1ccccc1 | inconclusive: 9.2 µM [activator, partial curve] | –
Cc1cc(C)n(CC(=O)NCc2cc(-c3nn(C)c(=O)c4ccccc34)ccc2C)n1 | inconclusive: 23.1 µM [falling, single point] | –
COc1ccccc1N1CCN(C(=O)c2ccc(Cl)c(S(=O)(=O)N3CCCC3)c2)CC1 | inconclusive: 32.6 µM [falling, single point] | –
COc1ccc(-c2nn(-c3ccccc3)cc2/C=N/NC(=O)c2cccc(S(=O)(=O)Nc3ccccc3OC)c2)cc1 | – | inactive: 5.66%
Cc1nc(-n2nc(C)c(Cc3ccc4c(c3)OCO4)c2C)sc1C(=O)Nc1cccc(Cl)c1 | – | inactive: -29.9%
Nc1ccc2nc(SCC(=O)Nc3ccc(N4CCOCC4)c(Cl)c3)sc2c1 | inconclusive: 2.59 µM [activator, partial curve, poor fit] | –
Oc1ccc(N2CCN(C(=S)NCc3ccccc3)CC2)cc1 | inconclusive: 0.731 µM [falling, partial curve, poor fit] | –
Cc1cc(C)cc(NC(=O)C(Nc2ccccc2)c2ccccc2)c1 (configuration not stated) | inconclusive: 29.1 µM [falling, single point] | –

Structure (SMILES) | Potency | activity change, negative = inhibition
O=S(=O)(NCCCSc1ccccc1)c1ccccc1F | inconclusive: 23.1 µM [falling, partial curve, poor fit] | –
Cc1ccccc1S(=O)(=O)Cc1ccc(C(=O)N2CCN(c3ccc(F)cc3)CC2)o1 | inconclusive: 23.1 µM [falling, single point] | –
CCCCn1cnc2c(sc3nc4c(cc32)CSC(C)(C)C4)c1=O | inconclusive: 0.92 µM [activator, full curve] | –
Cc1ccccc1-c1ncc(CN2CCC(CO)(CCCc3ccccc3)CC2)cn1 | inconclusive: 18.4 µM [falling, single point] | –
COc1ccc(Nc2nc3cc(C)ccc3cc2C#N)c(OC)c1 | – | inactive: -3.88%
O=Cc1ccc(OCc2cccc(C(F)(F)F)c2)cc1O | inconclusive: 20.6 µM [activator, single point] | –
O=c1[nH]c(=O)n(Cc2ccco2)c2c1C(C(F)(F)F)(C(F)(F)F)N=C(CCc1ccccc1)N2 | inconclusive: 23.1 µM [falling, single point] | –
COc1ccc(-c2cc(-c3cc(F)ccc3O)[nH]n2)cc1OC | – | inactive: 1.73%
CS/C(N)=N/N=C/c1ccc2c(c1)OCO2 | inconclusive: 8.2 µM [activator, partial curve] | –
O=C(CCCn1c(=S)[nH]c2cc3c(cc2c1=O)OCO3)NC1CC1 | inconclusive: 0.651 µM [activator, full curve, poor fit] | –
Cc1cc(C(=O)CN2CCC(C)CC2)c(C)n1-c1ccccc1F | inconclusive: 10.3 µM [falling, partial curve, poor fit] | –
Cc1cccc(NS(=O)(=O)c2ccc(C)c(C(N)=O)c2)c1 | inconclusive: 25.9 µM [falling, partial curve] | –
O=C(c1cccc(F)c1)N1CCC(N2CCCCCC2)CC1 | – | inactive: -15%
O=[N+]([O-])c1ccc(S(=O)(=O)Nc2nnc(C3CCCCC3)s2)cc1 | inconclusive: 29.1 µM [falling, single point] | –
Cc1nc2cc(C(F)(F)F)ccc2n1C1CCN(CC(=O)NC(C)(C)C)CC1 | inconclusive: 6.51 µM [falling, partial curve, poor fit] | –
CCOc1ccc2nc(NC(=O)CSc3nc4c(c(=O)n(C)c(=O)n4C)n3C(C)C)sc2c1 | – | inactive: -24.6%
COc1ccc(Cn2c(=O)n(-c3ccccc3C)c(=O)c3c4c(sc32)CN(C(C)=O)CC4)cc1 | inconclusive: 25.9 µM [falling, partial curve] | –
CC(=O)c1ccccc1NC(=O)CN1C(=O)CS/C1=C\c1nc(-c2ccc(C)cc2)cs1 | inconclusive: 10.3 µM [activator, partial curve] | –
CCCN(CCC)CCNC(=O)c1cc2c(-c3ccc(Cl)cc3)nn(C)c2s1 | active: 23.1 µM | –
CCOc1ccc(-c2n[nH]c(C)c2Oc2ccccc2OC)c(O)c1 | inconclusive: 29.1 µM [falling, single point] | –

Already shown: an excerpt of the list.
Structure (SMILES) | Potency | activity change, negative = inhibition
O=C(CCCn1c(=S)[nH]c2cc3c(cc2c1=O)OCO3)NC1CC1 | inconclusive: 0.651 µM [activator, full curve, poor fit] | –
Cc1cc(C(=O)CN2CCC(C)CC2)c(C)n1-c1ccccc1F | inconclusive: 10.3 µM [falling, partial curve, poor fit] | –
Cc1cccc(NS(=O)(=O)c2ccc(C)c(C(N)=O)c2)c1 | inconclusive: 25.9 µM [falling, partial curve] | –
O=C(c1cccc(F)c1)N1CCC(N2CCCCCC2)CC1 | – | inactive: -15%
